Laboratory results taken from US4703106A (Mitsubishi Petrochemical Co., Ltd., priority 1984, dated 1987).
*: point of attachment. Tos = Cc1ccc(S(=O)(=O)*)cc1; Boc = CC(C)(C)OC(=O)*; OBn = c1ccc(CO*)cc1; Bn = c1ccc(C*)cc1

Experiment: general procedure: solution-phase peptide synthesis; WSC/HOBT; DCC/HOSU; active esters (OSU, ONP)
Conditions: coupling step

Substance | step yield
AOC-Arg(Tos)-Thr(Bzl)-Asp(OBzl)-Val-Gly-Ala-Gly-Thr(Bzl)-Pro-NH2 | 74.8%
BOC-Gln-Glu(OBzl)-Leu-His-Lys[Cbz(o-Cl)]-Leu-Gln-Thr(Bzl)-Tyr(Bzl)-Pro-Arg(Tos)-Thr(Bzl)-Asp(OBzl)-Val-Gly-Ala-Gly-Thr(Bzl)-Pro-NH2 | 92.3%
BOC-Glu(OBzl)-Leu-His-Lys[Cbz(o-Cl)]-Leu-Gln-Thr(Bzl)-Tyr(Bzl)-Pro-Arg(Tos)-Thr(Bzl)-Asp(OBzl)-Val-Gly-Ala-Gly-Thr(Bzl)-Pro-NH2 | 73.3%
BOC-Leu-His-Lys[Cbz(o-Cl)]-Leu-Gln-Thr(Bzl)-Tyr(Bzl)-Pro-Arg(Tos)-Thr(Bzl)-Asp(OBzl)-Val-Gly-Ala-Gly-Thr(Bzl)-Pro-NH2 | 92.1%
BOC-Lys(Cbz)-Leu-Ser(Bzl)-Gln-Glu(OBzl)-Leu-His-Lys[Cbz(o-Cl)]-Leu-Gln-Thr(Bzl)-Tyr(Bzl)-Pro-Arg(Tos)-Thr(Bzl)-Asp(OBzl)-Val-Gly-Ala-Gly-Thr(Bzl)-Pro-NH2 | 69.8%
BOC-Lys[Cbz(o-Cl)]-Leu-Gln-Thr(Bzl)-Tyr(Bzl)-Pro-Arg(Tos)-Thr(Bzl)-Asp(OBzl)-Val-Gly-Ala-Gly-Thr(Bzl)-Pro-NH2 | 83.3%
Boc-AGT(Bn)P-NH2 | 62.4%
Boc-D(OBn)VGAGT(Bn)P-NH2 | 80.9%
Boc-QT(Bn)Y(Bn)PR(Tos)T(Bn)D(OBn)VGAGT(Bn)P-NH2 | 88.5%
Boc-T(Bn)D(OBn)VGAGT(Bn)P-NH2 | 65.5%
Boc-T(Bn)Y(Bn)PR(Tos)T(Bn)D(OBn)VGAGT(Bn)P-NH2 | 71.7%
Boc-VGAGT(Bn)P-NH2 | 71.2%
